Experimental data from PMC4446429.
Results are given in words; binding and its absence hold for the method and conditions named. Binding seen in cells or lysates may run through a third protein. Some binding calls cover weakened binding; strength is not graded here. For some assays here: Where a sequence is shown, tags or fusion partners need not be part of it.

The chains behind the UniProt entries cited, without tags or fusion partners. Residues count along the entry.
UniProt Q9BQ15: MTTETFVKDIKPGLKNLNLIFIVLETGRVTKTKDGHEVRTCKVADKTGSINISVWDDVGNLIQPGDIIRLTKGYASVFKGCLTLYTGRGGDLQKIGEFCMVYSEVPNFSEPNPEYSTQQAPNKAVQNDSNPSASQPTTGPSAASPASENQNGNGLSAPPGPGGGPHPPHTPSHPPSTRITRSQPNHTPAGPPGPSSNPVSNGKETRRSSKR
UniProt Q68E01: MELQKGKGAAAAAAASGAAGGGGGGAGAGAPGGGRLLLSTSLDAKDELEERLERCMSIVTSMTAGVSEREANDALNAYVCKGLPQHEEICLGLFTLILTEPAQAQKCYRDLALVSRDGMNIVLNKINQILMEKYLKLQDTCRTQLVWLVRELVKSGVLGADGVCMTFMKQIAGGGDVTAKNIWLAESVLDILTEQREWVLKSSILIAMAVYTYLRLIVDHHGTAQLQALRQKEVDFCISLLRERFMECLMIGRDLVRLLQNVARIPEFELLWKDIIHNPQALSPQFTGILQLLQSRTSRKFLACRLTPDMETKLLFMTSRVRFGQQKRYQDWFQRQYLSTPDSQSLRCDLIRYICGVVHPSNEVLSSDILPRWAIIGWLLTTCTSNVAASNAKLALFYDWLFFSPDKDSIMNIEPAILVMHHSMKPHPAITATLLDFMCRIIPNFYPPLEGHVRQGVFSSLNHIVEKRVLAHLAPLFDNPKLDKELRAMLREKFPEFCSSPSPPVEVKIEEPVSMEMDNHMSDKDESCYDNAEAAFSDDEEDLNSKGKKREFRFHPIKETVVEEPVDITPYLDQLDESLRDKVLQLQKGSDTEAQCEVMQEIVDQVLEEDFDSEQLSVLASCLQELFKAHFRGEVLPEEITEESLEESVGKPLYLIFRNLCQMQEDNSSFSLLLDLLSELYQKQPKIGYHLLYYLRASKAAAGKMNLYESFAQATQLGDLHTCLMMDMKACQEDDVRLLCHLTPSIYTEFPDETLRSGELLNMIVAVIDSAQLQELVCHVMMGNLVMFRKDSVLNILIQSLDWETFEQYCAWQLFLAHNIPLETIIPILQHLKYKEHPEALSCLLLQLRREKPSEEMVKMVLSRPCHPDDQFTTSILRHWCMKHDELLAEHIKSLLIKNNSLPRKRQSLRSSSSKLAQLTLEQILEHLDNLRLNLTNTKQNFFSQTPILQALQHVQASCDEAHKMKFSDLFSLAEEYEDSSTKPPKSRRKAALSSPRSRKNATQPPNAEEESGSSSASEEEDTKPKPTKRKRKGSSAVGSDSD
UniProt Q13535, residues 1-400: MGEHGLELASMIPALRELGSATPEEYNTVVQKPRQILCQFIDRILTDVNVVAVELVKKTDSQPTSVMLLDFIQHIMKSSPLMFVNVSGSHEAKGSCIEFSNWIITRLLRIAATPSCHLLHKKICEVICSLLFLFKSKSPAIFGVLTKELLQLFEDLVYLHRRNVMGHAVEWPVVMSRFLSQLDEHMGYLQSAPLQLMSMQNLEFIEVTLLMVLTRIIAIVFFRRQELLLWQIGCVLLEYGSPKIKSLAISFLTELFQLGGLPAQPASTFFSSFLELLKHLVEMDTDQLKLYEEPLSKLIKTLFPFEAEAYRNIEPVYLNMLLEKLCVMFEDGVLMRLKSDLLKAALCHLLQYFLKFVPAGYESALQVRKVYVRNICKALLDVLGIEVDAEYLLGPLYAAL

How the values were obtained:
[1] = molecular target: Myc-hSSB1 (human single-stranded DNA-binding protein 1) (human) (UniProt Q9BQ15); experiment: co-IP; tagged proteins individually expressed in 293T, immunoprecipitated with anti-Myc or anti-HA antibodies, eluted with Myc or HA peptides; eluates immunoblotted for endogenous RPA70 and RPA32
Myc-INTS3 (human) [2] = molecular target: Myc-INTS3 (human) (UniProt Q68E01); experiment: as above
[3] = molecular target: HA-ATR (1-400 aa), the ATRIP interacting domain of ATR (human) (UniProt Q13535); experiment: co-IP; 293T cells co-transfected with HA- and Myc-tagged proteins, lysed in NETN buffer (150 mM NaCl, 2 mM EDTA, 50 mM Tris-Cl, 0.2% NP-40); immunoprecipitation with HA antibody (Figure 5A, B) or Myc antibody (Figure 5C, D) on protein A sepharose, immunoblot of the other tag
[4] = molecular target: T1, HA-ATRIP (ATR-interacting protein) (human) (UniProt Q8WXE1); experiment: as above
T1 sequence: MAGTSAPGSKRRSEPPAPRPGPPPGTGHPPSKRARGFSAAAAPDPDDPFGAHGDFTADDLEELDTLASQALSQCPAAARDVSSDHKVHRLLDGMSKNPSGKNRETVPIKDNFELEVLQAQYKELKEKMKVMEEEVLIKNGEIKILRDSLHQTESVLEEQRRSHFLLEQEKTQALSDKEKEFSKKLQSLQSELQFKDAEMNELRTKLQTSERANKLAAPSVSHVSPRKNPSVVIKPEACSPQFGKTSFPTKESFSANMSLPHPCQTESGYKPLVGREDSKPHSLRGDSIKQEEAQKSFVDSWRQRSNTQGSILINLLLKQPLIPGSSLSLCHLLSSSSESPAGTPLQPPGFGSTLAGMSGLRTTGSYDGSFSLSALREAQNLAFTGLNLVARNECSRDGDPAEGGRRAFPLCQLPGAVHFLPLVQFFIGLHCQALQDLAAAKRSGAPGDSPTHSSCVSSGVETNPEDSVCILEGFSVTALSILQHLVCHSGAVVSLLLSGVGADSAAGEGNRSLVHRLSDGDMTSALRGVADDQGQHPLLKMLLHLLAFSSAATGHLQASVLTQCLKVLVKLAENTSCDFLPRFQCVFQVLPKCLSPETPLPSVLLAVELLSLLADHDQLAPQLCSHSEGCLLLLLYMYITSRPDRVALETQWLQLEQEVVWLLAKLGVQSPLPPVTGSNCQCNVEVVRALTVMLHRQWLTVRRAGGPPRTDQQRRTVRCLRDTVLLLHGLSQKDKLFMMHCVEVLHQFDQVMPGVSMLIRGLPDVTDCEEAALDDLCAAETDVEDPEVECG

Myc-INTS3 (human) [5] = molecular target: Myc-INTS3 (human) (UniProt Q68E01); experiment: as above

For “Replication protein A (RPA) complex, endogenous (from UniProt P27694 1-616; P15927 1-270; P35244 1-121)”, the binding [1] was “no binding” and the binding (Myc-INTS3 (human) [2]) was “no binding”.

In the case of “Myc-hSSB1 (human single-stranded DNA-binding protein 1) (from UniProt Q9BQ15 1-211)”, the binding [3] is reported as “binds” and the binding [4] is reported as “binds”.

With “HA-ATR (1-400 aa), the ATRIP interacting domain of ATR (from UniProt Q13535 1-400) (domain or fragment)” the binding (Myc-INTS3 (human) [5]) was “binds”.

Myc-INTS3 (from UniProt Q68E01 1-1043) was tested, and the binding [3] was “binds” and the binding [4] was “binds”.

B1: HA-ATRIP (ATR-interacting protein) (protein, UniProt Q8WXE1 1-791)
chain: T1 sequence
In the case of B1, the binding (Myc-INTS3 (human) [5]) is reported as “binds”.
